Experimental data: PubChem BioAssay AID652272 (Drosophila RNAi Screening Center, 2013)
Assay: 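Genes whose knock-down decreases or increases Hedgehog reporter output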 (primary screen). System: Drosophila clone 8 (Cl8) cells. Knock-down reagent: long dsRNA against Drosophila genes. Measurement: 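Plate reader light from a firefly reporter under a ptc promoter fragment that responds to Hedgehog, with Renilla light as transfection reference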. Direction: firefly Hh reporter signal: higher = more ptc reporter light; Renilla reference signal: higher = more Renilla control light. Active means: 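Hit when the z-score averaged over two replicates is under -2 or over +3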. Calls: active = hit: reporter lowered or raised; inactive = not a hit.
In all, the deposit lists about 21,000 reagents; below is an unselected part of those with a known target gene and a result. In the full data, 503 (2.4%) were called active. 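Raw plate light values, not normalised; calls rest on replicate z-scores that were not deposited; hits include reporter decreases as well as increases.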 Unmarked entries are inactive. The record does not give: the amount of reagent, the time to read-out.

| gene | DRSC id | firefly Hh reporter signal, replicate 1 | firefly Hh reporter signal, replicate 2 | firefly Hh reporter signal, replicate 3 | Renilla reference signal, replicate 1 | Renilla reference signal, replicate 2 |
| --- | --- | --- | --- | --- | --- | --- |
| CG5928 | DRSC18391 | 1.08e5 | 5.73e5 | 3.13e5 | 2995 | 4089 |
| CG5597 | DRSC04517 | 1.34e5 | 94580 | – | 4296 | 3957 |
| Gapdh2 (Glyceraldehyde 3 phosphate dehydrogenase 2) | DRSC20246 | 78368 | 1.06e5 | – | 2172 | 5961 |
| CG13658 | DRSC14659 | 6.62e5 | 1.23e5 | – | 33111 | 3906 |
| Acyp (Acylphosphatase) | DRSC01861 | 1.29e5 | 60932 | – | 3526 | 6176 |
| CG12768 | DRSC11680 | 68082 | 65329 | – | 2551 | 1818 |
| U4-U6-60K (U4-U6 small nuclear riboprotein factor 60K) | DRSC10624 | 1.09e5 | 69031 | – | 4816 | 3282 |
| CG5107 | DRSC15716 | 76976 | 68099 | – | 1760 | 1824 |
| uncNacbeta | DRSC00326 | 1.12e5 | 1.19e5 | – | 2265 | 2691 |
| Mnn1 (Menin 1) | DRSC03368 | 1.61e5 | 96859 | – | 4132 | 8084 |
| CG17752 | DRSC15262 | 7.49e5 | 1.74e5 | – | 38042 | 5015 |
| Prosbeta5R2 (Proteasome beta5 subunit-related 2) | DRSC01617 | 1.16e5 | 1.91e5 | – | 3192 | 9740 |
| yip3 (yippee interacting protein 3) | DRSC04724 | 71248 | 66565 | – | 1211 | 5507 |
| CG11029 | DRSC02119 | 90006 | 49845 | – | 2611 | 4296 |
| levy | DRSC04289 | 88394 | 76348 | – | 1712 | 6506 |
| CG11241 | DRSC11641 | 1.52e5 | 6.22e5 | 1.14e5 | 5752 | 37351 |
| CG5346 | DRSC15778 | 4.30e5 | 1.65e5 | – | 24914 | 487 |
| CG6962 | DRSC16153 | 58387 (active) | 39523 | – | 3319 | 2235 |
| CG9570 | DRSC20687 | 1.64e5 | 3.71e5 | – | 6539 | 14179 |
| CG32695 | DRSC17975 | 1.11e5 | 2.77e5 | – | 3200 | 11225 |
| CG15638 | DRSC01875 | 99750 | 45059 | – | 2940 | 4290 |
| Rx (Retinal Homeobox) | DRSC03837 | 1.61e5 | 3.08e5 | – | 4933 | 13637 |
| Rx (Retinal Homeobox) | DRSC04652 | 1.18e5 | 58824 | – | 3291 | 5840 |
| Eig71Ef (Ecdysone-induced gene 71Ef) | DRSC11153 | 1.92e5 | – | – | 7506 | 5910 |
| Task6 (TWIK-related acid-sensitive K[+] channel 6) | DRSC16530 | 92311 | 1.15e5 | – | 1920 | 3075 |
| pit (pitchoune) | DRSC17025 | 7.75e5 | 1.64e5 | – | 42706 | 12250 |
| Psi (P-element somatic inhibitor) | DRSC07519 | 1.07e5 | 77322 | – | 2730 | 5766 |
| Chchd2 (Coiled-coil-helix-coiled-coil-helix domain containing 2) | DRSC19931 | 97404 | 3.91e5 | – | 2346 | 15368 |
| CG14573 | DRSC11734 | 1.16e5 | 1.00e5 | – | 4036 | 5417 |
| CG12521 | DRSC09893 | 54988 | 45472 | 37589 | 4896 | 3072 |
| Fancd2 | DRSC15208 | 5.77e5 | 78907 | – | 34652 | 5960 |
| CR14117 (pseudo) | DRSC10121 | 39053 | 25114 | 41100 | 2924 | 2708 |
| CG42500 | DRSC14822 | 93846 | 1.13e5 | – | 3676 | 3382 |
| Sfxn1-3 (Sideroflexin 1/3) | DRSC12183 | 1.23e5 | 1.29e5 | – | 4224 | 7153 |
| noi (noisette) | DRSC12383 | 64867 (active) | 35200 | – | 4160 | 2391 |
| Br140 (Bromodomain-containing protein, 140kD) | DRSC06755 | 83557 | 49019 | – | 3034 | 2228 |
| robl62A | DRSC08153 | 77681 | 33474 | – | 1888 | 2439 |
| CG15044 | DRSC19620 | 1.42e5 | 3.83e5 | – | 2816 | 17744 |
| CG15202 | DRSC19649 | 1.03e5 | 2.35e5 | – | 2801 | 9456 |
| Cep164 (centrosomal protein 164) | DRSC20163 | 67520 | 1.76e5 | – | 2412 | 9239 |
| CG4892 | DRSC01937 | 1.47e5 | 1.24e5 | – | 3737 | 7522 |
| Pdcd4 (Programmed cell death 4) | DRSC19360 | 1.08e5 | 1.48e5 | – | 3538 | 6898 |
| PKD (Protein Kinase D) | DRSC16200 | 5.62e5 | 93645 | – | 33923 | 2409 |
| CG42336 | DRSC05273 | 1.25e5 | 2.81e5 | – | 3539 | 10775 |
| CG42336 | DRSC06332 | 82968 | 35894 | – | 2070 | 2501 |
| CG42336 | DRSC06333 | 1.64e5 | 5.20e5 | 90858 | 4288 | 1524 |
| CG9853 | DRSC12343 | 1.36e5 | 7.27e5 | 95101 | 5962 | 40637 |
| CG16779 | DRSC15153 | 47450 | 1.00e5 | – | 1606 | 2868 |
| Alg7 | DRSC02833 | 1.06e5 | 69386 | – | 3356 | 2726 |
| Alg7 | DRSC02834 | 1.04e5 | 47963 | – | 2848 | 4184 |
| CG31601 | DRSC03678 | 1.26e5 | 1.71e5 | – | 3544 | 6640 |
| CG34161 | DRSC01132 | 4.82e5 | 2.37e5 | – | 22625 | 8522 |
| Rbp6 (RNA-binding protein 6) | DRSC09456 | 2.58e5 | – | – | 5193 | – |
| Rbp6 (RNA-binding protein 6) | DRSC09462 | 1.76e5 | – | – | 2316 | – |
| Rbp6 (RNA-binding protein 6) | DRSC10072 | 1.40e5 | – | – | 3972 | 2979 |
| Rbp6 (RNA-binding protein 6) | DRSC10073 | 1.23e5 | – | – | 4540 | 2167 |
| Rbp6 (RNA-binding protein 6) | DRSC10662 | 1.05e5 | – | – | 4858 | 1932 |

7 successive reagents from above, quoted:
| gene | DRSC id | firefly Hh reporter signal, replicate 1 | firefly Hh reporter signal, replicate 2 | firefly Hh reporter signal, replicate 3 | Renilla reference signal, replicate 1 | Renilla reference signal, replicate 2 |
| --- | --- | --- | --- | --- | --- | --- |
| Psi (P-element somatic inhibitor) | DRSC07519 | 1.07e5 | 77322 | – | 2730 | 5766 |
| Chchd2 (Coiled-coil-helix-coiled-coil-helix domain containing 2) | DRSC19931 | 97404 | 3.91e5 | – | 2346 | 15368 |
| CG14573 | DRSC11734 | 1.16e5 | 1.00e5 | – | 4036 | 5417 |
| CG12521 | DRSC09893 | 54988 | 45472 | 37589 | 4896 | 3072 |
| Fancd2 | DRSC15208 | 5.77e5 | 78907 | – | 34652 | 5960 |
| CR14117 (pseudo) | DRSC10121 | 39053 | 25114 | 41100 | 2924 | 2708 |
| CG42500 | DRSC14822 | 93846 | 1.13e5 | – | 3676 | 3382 |
